Measured values reported in article PMC11952666.
These are yes or no findings as the source states them, for the method shown. In cells and extracts the contact can be indirect. Some binding calls cover weakened binding; strength is not graded here.

By UniProt entry, the sequences of proteins in these tests, tags left out.
UniProt Q9UKA4: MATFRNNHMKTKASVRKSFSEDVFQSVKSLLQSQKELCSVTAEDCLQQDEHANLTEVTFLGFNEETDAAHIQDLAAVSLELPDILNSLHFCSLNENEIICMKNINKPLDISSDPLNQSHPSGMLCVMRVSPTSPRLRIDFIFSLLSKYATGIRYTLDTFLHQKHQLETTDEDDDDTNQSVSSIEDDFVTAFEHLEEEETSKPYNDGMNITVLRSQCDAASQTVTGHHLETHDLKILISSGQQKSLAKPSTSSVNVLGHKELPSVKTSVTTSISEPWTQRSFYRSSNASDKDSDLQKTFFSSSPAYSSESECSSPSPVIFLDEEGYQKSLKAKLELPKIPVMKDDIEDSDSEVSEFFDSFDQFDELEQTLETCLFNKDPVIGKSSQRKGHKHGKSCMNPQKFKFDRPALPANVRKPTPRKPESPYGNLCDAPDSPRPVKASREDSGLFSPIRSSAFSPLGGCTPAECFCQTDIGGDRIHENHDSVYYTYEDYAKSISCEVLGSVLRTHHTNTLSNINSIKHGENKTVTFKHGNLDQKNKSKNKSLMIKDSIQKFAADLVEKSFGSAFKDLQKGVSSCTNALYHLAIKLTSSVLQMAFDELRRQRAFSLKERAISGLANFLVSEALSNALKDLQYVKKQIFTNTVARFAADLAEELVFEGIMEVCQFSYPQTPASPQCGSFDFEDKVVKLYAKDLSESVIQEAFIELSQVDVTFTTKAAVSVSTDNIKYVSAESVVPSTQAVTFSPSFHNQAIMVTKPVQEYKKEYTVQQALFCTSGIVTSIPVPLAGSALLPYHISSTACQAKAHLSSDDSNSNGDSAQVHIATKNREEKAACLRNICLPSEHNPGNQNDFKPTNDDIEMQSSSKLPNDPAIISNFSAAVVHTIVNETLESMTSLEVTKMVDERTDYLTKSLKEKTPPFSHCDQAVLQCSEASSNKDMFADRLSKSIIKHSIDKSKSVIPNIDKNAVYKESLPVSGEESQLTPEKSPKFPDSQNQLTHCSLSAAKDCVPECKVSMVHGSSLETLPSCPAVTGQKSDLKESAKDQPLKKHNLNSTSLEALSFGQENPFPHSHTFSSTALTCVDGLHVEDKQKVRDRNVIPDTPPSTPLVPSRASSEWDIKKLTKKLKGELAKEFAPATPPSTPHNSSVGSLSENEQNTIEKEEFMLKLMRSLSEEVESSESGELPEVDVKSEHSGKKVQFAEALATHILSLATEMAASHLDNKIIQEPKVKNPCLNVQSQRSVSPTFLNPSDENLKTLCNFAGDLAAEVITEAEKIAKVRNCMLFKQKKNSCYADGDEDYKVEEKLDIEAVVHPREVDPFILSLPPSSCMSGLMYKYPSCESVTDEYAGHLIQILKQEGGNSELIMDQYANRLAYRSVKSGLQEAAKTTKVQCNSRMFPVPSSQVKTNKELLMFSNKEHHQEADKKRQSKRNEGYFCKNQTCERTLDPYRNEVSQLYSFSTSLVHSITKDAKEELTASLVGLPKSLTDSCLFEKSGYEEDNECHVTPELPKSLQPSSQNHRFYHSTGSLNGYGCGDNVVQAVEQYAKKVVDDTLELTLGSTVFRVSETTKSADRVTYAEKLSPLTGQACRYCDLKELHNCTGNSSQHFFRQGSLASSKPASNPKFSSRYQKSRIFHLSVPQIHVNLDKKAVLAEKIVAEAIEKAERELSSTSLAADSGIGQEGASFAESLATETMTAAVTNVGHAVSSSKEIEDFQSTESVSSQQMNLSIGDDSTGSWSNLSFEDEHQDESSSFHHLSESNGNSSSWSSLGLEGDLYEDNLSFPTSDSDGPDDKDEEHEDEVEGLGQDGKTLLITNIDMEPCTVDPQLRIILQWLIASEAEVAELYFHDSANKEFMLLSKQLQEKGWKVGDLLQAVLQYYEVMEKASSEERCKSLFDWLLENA
UniProt Q9DBC7: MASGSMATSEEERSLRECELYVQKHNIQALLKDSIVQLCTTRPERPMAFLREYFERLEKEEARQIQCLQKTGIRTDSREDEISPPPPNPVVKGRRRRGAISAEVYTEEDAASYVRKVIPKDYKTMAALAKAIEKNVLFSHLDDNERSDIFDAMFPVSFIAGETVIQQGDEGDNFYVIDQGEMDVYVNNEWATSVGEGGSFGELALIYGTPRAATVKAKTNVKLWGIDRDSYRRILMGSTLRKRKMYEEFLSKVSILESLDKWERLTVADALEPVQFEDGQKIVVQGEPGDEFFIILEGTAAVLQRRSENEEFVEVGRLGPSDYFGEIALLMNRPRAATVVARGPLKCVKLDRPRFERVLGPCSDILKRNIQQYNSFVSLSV
UniProt Q6NSW3: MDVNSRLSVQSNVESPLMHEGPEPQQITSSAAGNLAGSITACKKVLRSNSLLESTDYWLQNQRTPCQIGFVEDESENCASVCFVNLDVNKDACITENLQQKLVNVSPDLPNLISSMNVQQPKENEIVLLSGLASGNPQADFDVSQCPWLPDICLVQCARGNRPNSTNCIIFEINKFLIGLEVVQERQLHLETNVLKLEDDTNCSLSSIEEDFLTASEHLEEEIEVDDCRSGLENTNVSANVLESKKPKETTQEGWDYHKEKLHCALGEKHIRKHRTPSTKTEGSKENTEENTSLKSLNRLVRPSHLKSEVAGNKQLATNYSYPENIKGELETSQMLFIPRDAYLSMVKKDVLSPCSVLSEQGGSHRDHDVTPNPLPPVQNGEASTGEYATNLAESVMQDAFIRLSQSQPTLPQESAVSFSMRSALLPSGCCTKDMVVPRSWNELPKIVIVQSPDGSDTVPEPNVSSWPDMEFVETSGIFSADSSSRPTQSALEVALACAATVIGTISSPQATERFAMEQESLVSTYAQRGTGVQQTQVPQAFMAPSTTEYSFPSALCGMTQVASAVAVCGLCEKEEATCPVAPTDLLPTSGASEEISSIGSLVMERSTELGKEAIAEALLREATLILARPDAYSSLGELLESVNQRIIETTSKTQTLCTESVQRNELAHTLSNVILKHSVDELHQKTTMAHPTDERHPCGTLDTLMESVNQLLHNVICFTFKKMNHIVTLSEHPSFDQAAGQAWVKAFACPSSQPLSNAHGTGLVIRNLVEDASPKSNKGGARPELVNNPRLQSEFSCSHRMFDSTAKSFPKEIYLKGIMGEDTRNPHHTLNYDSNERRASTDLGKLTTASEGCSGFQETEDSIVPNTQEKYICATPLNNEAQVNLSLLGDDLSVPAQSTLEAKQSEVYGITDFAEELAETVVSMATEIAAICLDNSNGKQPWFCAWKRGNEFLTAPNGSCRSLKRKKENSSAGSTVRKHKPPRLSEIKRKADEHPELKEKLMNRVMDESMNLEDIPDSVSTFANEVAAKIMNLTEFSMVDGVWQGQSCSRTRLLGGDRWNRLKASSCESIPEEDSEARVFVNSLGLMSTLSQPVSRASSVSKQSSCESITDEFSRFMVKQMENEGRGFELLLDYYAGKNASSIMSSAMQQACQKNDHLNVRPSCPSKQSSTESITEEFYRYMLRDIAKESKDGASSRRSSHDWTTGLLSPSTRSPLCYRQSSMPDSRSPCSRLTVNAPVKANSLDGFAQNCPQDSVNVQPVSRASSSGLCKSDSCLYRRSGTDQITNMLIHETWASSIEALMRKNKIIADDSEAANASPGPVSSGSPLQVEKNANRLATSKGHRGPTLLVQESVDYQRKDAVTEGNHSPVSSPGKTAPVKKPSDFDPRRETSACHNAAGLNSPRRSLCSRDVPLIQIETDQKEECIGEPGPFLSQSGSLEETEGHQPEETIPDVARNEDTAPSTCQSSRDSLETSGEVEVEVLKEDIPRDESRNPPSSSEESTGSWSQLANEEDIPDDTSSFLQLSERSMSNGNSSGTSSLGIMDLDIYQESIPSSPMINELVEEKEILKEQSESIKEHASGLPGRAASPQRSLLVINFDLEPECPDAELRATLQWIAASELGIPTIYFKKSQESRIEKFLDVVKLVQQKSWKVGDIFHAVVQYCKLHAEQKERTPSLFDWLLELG
UniProt Q9QY76: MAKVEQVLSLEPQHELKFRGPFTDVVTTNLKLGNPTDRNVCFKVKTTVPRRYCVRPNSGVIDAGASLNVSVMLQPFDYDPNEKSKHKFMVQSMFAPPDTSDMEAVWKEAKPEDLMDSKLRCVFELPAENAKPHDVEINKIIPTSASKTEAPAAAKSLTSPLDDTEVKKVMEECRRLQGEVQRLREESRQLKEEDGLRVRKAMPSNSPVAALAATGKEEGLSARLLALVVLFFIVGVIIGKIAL
UniProt P12849: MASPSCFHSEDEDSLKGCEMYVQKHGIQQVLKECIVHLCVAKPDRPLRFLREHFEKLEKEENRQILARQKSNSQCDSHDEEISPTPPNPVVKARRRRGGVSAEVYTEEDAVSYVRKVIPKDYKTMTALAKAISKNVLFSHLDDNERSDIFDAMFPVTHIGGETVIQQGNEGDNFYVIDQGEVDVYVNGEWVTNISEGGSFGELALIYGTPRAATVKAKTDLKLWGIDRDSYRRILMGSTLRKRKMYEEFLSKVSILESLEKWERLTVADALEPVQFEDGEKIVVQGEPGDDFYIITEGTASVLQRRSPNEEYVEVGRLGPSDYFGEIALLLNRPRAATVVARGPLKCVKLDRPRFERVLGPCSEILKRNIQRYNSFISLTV

B1: VAPA (protein, UniProt Q9WV55 1-249)
chain: MASASGAMAKHEQILVLDPPSDLKFKGPFTDVVTTNLKLQNPSDRKVCFKVKTTAPRRYCVRPNSGIIDPGSIVTVSVMLQPFDYDPNEKSKHKFMVQTIFAPPNISDMEAVWKEAKPDELMDSKLRCVFEMPNENDKLNDMEPSKAVPLNASKQDGPLPKPHSVSLNDTETRKLMEECKRLQGEMMKLSEENRHLRDEGLRLRKVAHSDKPGSTSAVSFRDNVTSPLPSLLVVIAAIFIGFFLGKFIL

What follows are molecules tested against AKAP11-eGFP fusion protein (UniProt Q9UKA4) (assay: co-IP; GFP-trap magnetic particles (Chromotek), 1 mg brain lysate of AKAP11-eGFP transgenic and non-transgenic mice, overnight at 4°C, washed with RIPA buffer, immunoblot).

| binding | Molecule |
| --- | --- |
| binds | PKA regulatory subunit RIα (from UniProt Q9DBC7 1-381) |
| binds | SPHKAP (from UniProt Q6NSW3 1-1687) |
| binds | VAPB (from UniProt Q9QY76 1-243) |
| binds | PKA regulatory subunit RIβ (from UniProt P12849 1-381) |
| binds | B1 |
